This is an account of results in patent US20030118510A1 (priority 2001, published 2003).

The nature of the data set: peptide synthesis. Conditions: late stage modification step.

Turning to Di-NαA1,NεB29-t-Boc-Insulin, the step yield is reported as 26.7%.
